# Assay results

Source: PubChem BioAssay AID1159506 (NCATS, 2015).

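Genome-wide siRNA knockdown in TC32 Ewing sarcoma cells, comparing luciferase light from an NR0B1-promoter reporter with a CMV-promoter reporter 48 hours after transfection.
Each siRNA was applied at 20 nM.
A z-score of the log NR0B1-over-CMV signal, less the median of siRNAs with the same seed; more negative means a stronger specific loss of the NR0B1 reporter.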

The strongest results of the screen are mostly left out here.
Sequences are the guide (antisense) strand, without overhang.

| Sequence | target gene | seed-corrected z-score |
|---|---|---|
| `UGGUCAAUAAGAUUUGAGC` | ZNF383 | -0.01642 |
| `AUAGCGAUAUACAUCAUUC` | DACT1 | 0.1429 |
| `AAUUCAAGCACGACGUGGG` | LOC645984 | -0.931 |
| `UGAGCUAUCAAUGUUGGUC` | ITGA7 | 0.07783 |
| `UAGCUUGUUUAUAAGUUCG` | CNN3 | 0.2537 |
| `AGAGUUACAGCUUUCAGUG` | SRY | -0.682 |
| `UAAAUAGCUGUUCCAUACC` | CCDC121 | 1.047 |
| `AUCACGGUCAGUGUAAUGG` | NSRP1 | -0.03589 |
| `UUUGGUCCUGCAACCCAUG` | CNTNAP3B | -1.447 |
| `UUUGAGAUCCUUUCGCAGC` | UBE3B | -0.5655 |
| `UUUGUUCAUCCCACGAGCC` | OSBP2 | -0.984 |
| `UCUGAUCCGAUGAGAAGCC` | TESC | 0.1499 |
| `UAAUAUAGUAGCGAUCUGG` | STK24 | -0.7528 |
| `UUUUGCACCAGUCUCGCUU` | GREM1 | 0.2966 |
| `UGUUCUUCCACGCAUUCUU` | CLDND2 | -0.6236 |
| `UGAGCUGAUACUCUGCAGG` | MTIF3 | -0.1267 |
| `UAUGCUUGAAGUGCGCCUC` | ADAP1 | -0.03517 |
| `UUAGUAGCUCUCUUACACC` | IFIH1 | -0.777 |
| `UCUGGGUCCAGAGUGCACU` | ACSBG1 | -0.7641 |
| `UUAUCGCUCAGUACCUUGC` | HIST1H4G | 0.02755 |
| `AUCAUUAUCUUCUAUUCCC` | FAM179A | -0.3262 |
| `UUCCUUUUAACCACUCCUG` | DCUN1D4 | -0.8751 |
| `AUACUGACAGACGAACUCC` | ZBTB38 | -0.1203 |
| `UCUGAUCCCACAAUGAACC` | MESDC2 | -1.776 |
| `AAACGAGGAAGUUACGAGC` | SMC1A | 0.3416 |
| `UUUGUUGUGAUUUAGUCUC` | KERA | -0.3666 |
| `UAACCGAAGCAGUUCAUCC` | CENPU | 0.9295 |
| `UAAGAGUCCACAGUAGUGC` | DCHS1 | -1.055 |
| `AUCUGGAUGAGUAAGAACA` | SSPN | 0.5259 |
| `UAGCUUUUUAAUGCCGUGU` | JRK | 0.05709 |
| `AACACUGCAAAUAUUGCCG` | LINC00479 | -0.5838 |
| `UAGAUUGGAAGUAAGGUGG` | LILRA6 | 0.8433 |
| `UGAUGGUACACUGCUCUUC` | STARD8 | -0.21 |
| `UAAUGACUCAACCUGGUCG` | CCDC185 | -0.0005501 |
| `UUACUGACCCAGUCAAUGC` | TAS2R13 | 0.2121 |
| `UUGAUGAGAACAAGGGCUG` | RORC | -0.7219 |
| `UGAGUGUUAAAUGAACCUG` | MANEAL | 0.5107 |
| `UUAGGGACCCACUAGCACC` | SH3BP5L | 0.804 |
| `UCGCUUUCAAUUUGGACCG` | STX1B | -1.09 |
| `UCAUCUACUGUCUUACUUC` | SENP7 | 0.9083 |
| `UGAAGAGCGAGUAGUGAUG` | LOC646762 | 1.015 |
| `AUAUAGACGAUGGCCAGGC` | FERD3L | -0.0993 |
| `UUUGUAGGCAUAAAAUUCU` | RNF24 | 1.225 |
| `UUUGAUGUAAGGUGAGGUG` | ZNF133 | -0.6792 |
| `UCGAAGUCUUGUUCCCUGC` | SEMA4D | 0.315 |
| `AGACGAAUUAGACCUGUGC` | GRIK1 | 0.4678 |
| `UAUGCGGCUUGUCACCUCC` | NOS3 | -0.302 |
| `UGUCAAUCUUGAGUAAGGC` | CDHR1 | -0.02938 |
| `AAGUCUAUGAUUUCUGGUG` | GAK | 0.5357 |
| `UAUCUUGCAAUAAGAGUCC` | ABHD18 | -0.8863 |
| `UAAAAGUCCCGUUACAGUG` | SOCS5 | 0.876 |
| `UACAAGCACGCAGUAAAUG` | ZNF428 | 0.6338 |
| `UCAGUAUCAAAGAAGUGAG` | OR8K5 | 0.7004 |
| `UUCCAUCUCAAUCCGGUAG` | MEGF6 | -0.9811 |
| `AAACUGGAAACCUCUAUCC` | CNBP | -0.796 |
| `AAAUCUUUCAGUGCGGUAG` | FAM172A | 0.2068 |
| `UUUGUGAUAGCAUGCGUUC` | IFT43 | 0.2149 |
| `UCCGAGUUGAGAAUGUAGC` | MATN2 | -0.1331 |
| `AAAAUUCCCAGAUACACUC` | FSCN3 | 0.3223 |
| `UAGUGUCCUCGAACUACCU` | RPL26P30 | 0.2409 |
| `UUCUCGUUCUCUAUCUUGC` | RNF6 | 0.5758 |
| `AGUUAUACCAGCAAUAAUG` | ACSL3 | 0.7217 |
| `UAUGCACCAAUGGUAAGUU` | TMSB15A | 0.786 |
| `UAUUUAAUACGUUGCUUAC` | STAM | 0.2322 |
| `UGAGGAUAAGGUAGUAACU` | POU2F2 | 0.008226 |
| `UACGGUAGCUGCUUCUCAC` | FADS6 | -0.8935 |
| `UUCGUAGGCCUUGAGGUCC` | FOXA2 | -0.1193 |
| `UUCCAUAUUAGAAAGAACC` | IMPA1 | 0.652 |
| `UCCGGGUUGACUGAUCAUC` | ASXL3 | -0.08305 |
| `UUUUAUAUUGCGUCAAUUC` | MTUS1 | -0.4439 |
| `UCUAGCUUCACGAUCACGG` | PKD2 | -0.1349 |
| `AUCUUUAUAACCGAGGGAG` | SLC4A5 | -1.264 |
| `AAAGCAAUCGGCAUCUGCG` | CASP6 | -0.2185 |
| `UUCGUUUCCGGCCCAUUUC` | CPSF3L | 0.003854 |
| `AUUCUGUCUACUGAUAUCC` | IQCD | -0.02016 |
| `UCUCUGAUCCCUUUGAGUC` | SH3BGR | 0.1132 |
| `UAGGAGACAUAGUAGGUCC` | GRINA | -0.8455 |
| `UGAUAUACUCUGUAAGUGC` | TESK2 | -0.02232 |
| `UAAGAUUACACUUGUCUCC` | OSBP | -0.1377 |

For reference, 5 entries once more:

* AAAAUUCCCAGAUACACUC against FSCN3 | seed-corrected z-score 0.3223
* UGAGGAUAAGGUAGUAACU against POU2F2 | seed-corrected z-score 0.008226
* UAAAUAGCUGUUCCAUACC against CCDC121 | seed-corrected z-score 1.047
* AUACUGACAGACGAACUCC against ZBTB38 | seed-corrected z-score -0.1203
* UUAGGGACCCACUAGCACC against SH3BP5L | seed-corrected z-score 0.804